# PubChem BioAssay AID1224830, NIAID, 2016
# Test: 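Regulators of TLR4 signalling towards TNF-alpha in macrophage-like cells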 (primary screen)
# Cells: human THP-1 monocytic leukaemia cells, TNF dual-luciferase reporter clone, PMA-differentiated to macrophage-like cells
# Reagents: siRNA pool against human genes, 50 nM
# Duration: LPS for 4 h, given about 3 days after siRNA transfection
# Treatment: bacterial LPS (TLR4 ligand), 10 ng/ml
# Read-out: 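Ratio of firefly to renilla light, scaled to the plate median and expressed as a robust z-score per replicate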
# Scale: TNF reporter robust z-score: higher = stronger TNF reporter response to LPS
# Call rule: 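Each well counts as active if its z-score is over 2.8 or under -1.5; controls are left without a call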
# The whole screen tested about 18,000 reagents; this is a part drawn at random. About 2,900 of all reagents (16%) were called active. 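Calls are made per well; low scores hint the gene aids the LPS response, high scores that it dampens it.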 Repeated entries: four replicate wells of each siRNA pool. Reagent sequences are not shown.
The first 9 entries, to show the layout:
gene knocked down,PubChem SID,TNF reporter robust z-score,outcome
CRYGC,SID315448111,1.66,inactive
CRYGC,SID315448111,1.6,inactive
CRYGC,SID315448111,1.44,inactive
CRYGC,SID315448111,2.43,inactive
GPSM1,SID315455659,1.95,inactive
GPSM1,SID315455659,0.76,inactive
GPSM1,SID315455659,2.04,inactive
GPSM1,SID315455659,2.02,inactive
CA8,SID315447649,0.03,inactive

Results, repeating the preview:
gene knocked down,PubChem SID,TNF reporter robust z-score,outcome
CRYGC,SID315448111,1.66,inactive
CRYGC,SID315448111,1.6,inactive
CRYGC,SID315448111,1.44,inactive
CRYGC,SID315448111,2.43,inactive
GPSM1,SID315455659,1.95,inactive
GPSM1,SID315455659,0.76,inactive
GPSM1,SID315455659,2.04,inactive
GPSM1,SID315455659,2.02,inactive
CA8,SID315447649,0.03,inactive
CA8,SID315447649,0.34,inactive
CA8,SID315447649,-0.71,inactive
CA8,SID315447649,-0.67,inactive
ADAMTS12,SID315459945,-0.61,inactive
ADAMTS12,SID315459945,-0.27,inactive
ADAMTS12,SID315459945,1.35,inactive
ADAMTS12,SID315459945,0.65,inactive
STRN3,SID315456252,-0.61,inactive
STRN3,SID315456252,0.3,inactive
STRN3,SID315456252,-0.36,inactive
STRN3,SID315456252,0.06,inactive
ST8SIA2,SID315452408,-0.79,inactive
ST8SIA2,SID315452408,-1.3,inactive
ST8SIA2,SID315452408,-0.39,inactive
ST8SIA2,SID315452408,-0.13,inactive
HELLS,SID315449176,0.22,inactive
HELLS,SID315449176,0.01,inactive
HELLS,SID315449176,-0.25,inactive
HELLS,SID315449176,-0.1,inactive
GNB5,SID315454293,0.84,inactive
GNB5,SID315454293,0.15,inactive
GNB5,SID315454293,1.67,inactive
GNB5,SID315454293,2.41,inactive
PARP14,SID315457106,-0.75,inactive
PARP14,SID315457106,-0.36,inactive
PARP14,SID315457106,-1.09,inactive
PARP14,SID315457106,-1.32,inactive
RFTN2,SID315461854,1.19,inactive
RFTN2,SID315461854,1.25,inactive
RFTN2,SID315461854,-0.75,inactive
RFTN2,SID315461854,0.53,inactive
CCT8L2,SID315462438,-0.61,inactive
CCT8L2,SID315462438,-0.5,inactive
CCT8L2,SID315462438,-0.12,inactive
CCT8L2,SID315462438,-0.28,inactive
ZNF586,SID315457172,-0.77,inactive
ZNF586,SID315457172,-0.58,inactive
ZNF586,SID315457172,-0.83,inactive
ZNF586,SID315457172,-0.32,inactive
PLGLB2,SID315450635,-0.63,inactive
PLGLB2,SID315450635,1.43,inactive
PLGLB2,SID315450635,-0.09,inactive
PLGLB2,SID315450635,-0.24,inactive
ADRB3,SID315447223,-0.1,inactive
ADRB3,SID315447223,0,inactive
ADRB3,SID315447223,-0.54,inactive
ADRB3,SID315447223,0.14,inactive
ZDHHC16,SID315460299,-0.77,inactive
ZDHHC16,SID315460299,0.09,inactive
ZDHHC16,SID315460299,0.81,inactive
ZDHHC16,SID315460299,0.2,inactive
DLX1,SID315448321,-1.01,inactive
DLX1,SID315448321,0.22,inactive
DLX1,SID315448321,-0.99,inactive
DLX1,SID315448321,-0.83,inactive
PPP2R2D,SID315457901,-0.22,inactive
PPP2R2D,SID315457901,0.94,inactive
PPP2R2D,SID315457901,1.63,inactive
PPP2R2D,SID315457901,-0.52,inactive
NXNL2,SID315462643,-0.17,inactive
NXNL2,SID315462643,-0.73,inactive
NXNL2,SID315462643,-0.91,inactive
NXNL2,SID315462643,-0.66,inactive
ONECUT3,SID315464662,-0.72,inactive
ONECUT3,SID315464662,-0.32,inactive
ONECUT3,SID315464662,-0.51,inactive
ONECUT3,SID315464662,-0.26,inactive
ZNF208,SID315452282,-0.25,inactive
ZNF208,SID315452282,1.86,inactive
ZNF208,SID315452282,0.33,inactive
ZNF208,SID315452282,0.45,inactive
GEMIN8,SID315457301,-0.09,inactive
GEMIN8,SID315457301,0,inactive
GEMIN8,SID315457301,0.06,inactive
GEMIN8,SID315457301,0.26,inactive
KNSTRN,SID315460822,0.09,inactive
KNSTRN,SID315460822,-0.12,inactive
KNSTRN,SID315460822,0.39,inactive
KNSTRN,SID315460822,0.87,inactive
DLGAP5,SID315453566,0.42,inactive
DLGAP5,SID315453566,-1.19,inactive
DLGAP5,SID315453566,-0.3,inactive
DLGAP5,SID315453566,-0.85,inactive
BTAF1,SID315452995,2.15,inactive
BTAF1,SID315452995,2.85,active
BTAF1,SID315452995,1.67,inactive
BTAF1,SID315452995,2.4,inactive
DEFB132,SID315464760,0.76,inactive
DEFB132,SID315464760,-0.3,inactive
DEFB132,SID315464760,-0.12,inactive
DEFB132,SID315464760,0.26,inactive
CMTR1,SID315454967,-0.7,inactive
CMTR1,SID315454967,1.09,inactive
CMTR1,SID315454967,-0.03,inactive
CMTR1,SID315454967,-0.74,inactive
FRMPD2,SID315462176,0.06,inactive
FRMPD2,SID315462176,-0.07,inactive
FRMPD2,SID315462176,0.23,inactive
FRMPD2,SID315462176,0.51,inactive
GK5,SID315463521,-0.45,inactive
GK5,SID315463521,-0.9,inactive
GK5,SID315463521,-1.42,inactive
GK5,SID315463521,-1.15,inactive
